Taken from: PubChem BioAssay AID602196 (INSERM, 2012)
Shown is one part, drawn at random, of about 23,000 deposited reagents. 455 of all reagents (2%) were called active. 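Active includes both protection and sensitisation; some change values fall well beyond the stated -50 to +50 range.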 Further read-outs or replicates are left out here. No sequences are given here. Not given: the amount of reagent.

- Test: 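Genes whose knock-down alters cisplatin killing of lung cancer cells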
- System: human A549 lung cancer cells
- Reagent: siRNA pair against human genes
- Timing: 48 h transfection before cisplatin; time from cisplatin to read-out not stated
- Conditions: cisplatin at a dose killing half of control-siRNA cells; exact dose and duration not given
- Measurement: 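Shift in cisplatin death relative to control siRNA, from -50 (all cells die) to +50 (no cells die); siRNAs harmful on their own scored 0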
- Reading the numbers: two-siRNA summed score (-2 to +2): higher = both siRNAs protect from cisplatin killing; -2 means both sensitise; mean protection from cisplatin (shift in death): higher = protection from cisplatin killing
- Active means: 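siRNAs harmful alone (LDH or WST-1) get 0; others get +1 for less and -1 for more cisplatin killing; genes are active when the two siRNAs give the same sign, summing to ±2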
- Meaning of the calls: active = both siRNAs shift cisplatin killing the same way; inactive = no consistent shift, or siRNA harmful alone

LOC220717 → two-siRNA summed score (-2 to +2) = 0; mean protection from cisplatin (shift in death) (%) = 23.5; Outcome = inactive
PPWD1 → two-siRNA summed score (-2 to +2) = 0; mean protection from cisplatin (shift in death) (%) = 8.4; Outcome = inactive
IFNE → two-siRNA summed score (-2 to +2) = -1; mean protection from cisplatin (shift in death) (%) = -4.2; Outcome = inactive
HYAL3 → two-siRNA summed score (-2 to +2) = 0; mean protection from cisplatin (shift in death) (%) = 5.3; Outcome = inactive
YWHAQ → two-siRNA summed score (-2 to +2) = -1; mean protection from cisplatin (shift in death) (%) = -17.4; Outcome = inactive
FENDRR → two-siRNA summed score (-2 to +2) = 0; mean protection from cisplatin (shift in death) (%) = 3.4; Outcome = inactive
SIGLEC5 → two-siRNA summed score (-2 to +2) = 1; mean protection from cisplatin (shift in death) (%) = 1.7; Outcome = inactive
LOC390908 → two-siRNA summed score (-2 to +2) = 0; mean protection from cisplatin (shift in death) (%) = 7.5; Outcome = inactive
EEF1G → two-siRNA summed score (-2 to +2) = 1; mean protection from cisplatin (shift in death) (%) = 10.4; Outcome = inactive
KIR3DL1 → two-siRNA summed score (-2 to +2) = 0; mean protection from cisplatin (shift in death) (%) = 3.5; Outcome = inactive
LOC401151 → two-siRNA summed score (-2 to +2) = 0; mean protection from cisplatin (shift in death) (%) = 2.1; Outcome = inactive
CYP4X1 → two-siRNA summed score (-2 to +2) = 0; mean protection from cisplatin (shift in death) (%) = 0.2; Outcome = inactive
PPBP → two-siRNA summed score (-2 to +2) = 0; mean protection from cisplatin (shift in death) (%) = -12.2; Outcome = inactive
SMIM17 → two-siRNA summed score (-2 to +2) = 0; mean protection from cisplatin (shift in death) (%) = 11.2; Outcome = inactive
EGFR → two-siRNA summed score (-2 to +2) = 0; mean protection from cisplatin (shift in death) (%) = 7.8; Outcome = inactive
SEC14L2 → two-siRNA summed score (-2 to +2) = 0; mean protection from cisplatin (shift in death) (%) = -0.6; Outcome = inactive
KAZALD1 → two-siRNA summed score (-2 to +2) = 0; mean protection from cisplatin (shift in death) (%) = 5.3; Outcome = inactive
PCDHB13 → two-siRNA summed score (-2 to +2) = 0; mean protection from cisplatin (shift in death) (%) = 12.1; Outcome = inactive
TUT4 → two-siRNA summed score (-2 to +2) = 0; mean protection from cisplatin (shift in death) (%) = -1.3; Outcome = inactive
PLEKHA6 → two-siRNA summed score (-2 to +2) = 1; mean protection from cisplatin (shift in death) (%) = 9.4; Outcome = inactive

Laid out differently: results already given.
{"gene":"KAZALD1","two-siRNA summed score (-2 to +2)":0,"mean protection from cisplatin (shift in death) (%)":5.3,"Outcome":"inactive"}
{"gene":"PCDHB13","two-siRNA summed score (-2 to +2)":0,"mean protection from cisplatin (shift in death) (%)":12.1,"Outcome":"inactive"}

The list goes on.
ZFAND4 → two-siRNA summed score (-2 to +2) = 0; mean protection from cisplatin (shift in death) (%) = 2.1; Outcome = inactive
EHD3 → two-siRNA summed score (-2 to +2) = 0; mean protection from cisplatin (shift in death) (%) = 3.4; Outcome = inactive
DDX47 → two-siRNA summed score (-2 to +2) = -1; mean protection from cisplatin (shift in death) (%) = -4.2; Outcome = inactive
TNNT2 → two-siRNA summed score (-2 to +2) = -1; mean protection from cisplatin (shift in death) (%) = -10.4; Outcome = inactive
LOC388620 → two-siRNA summed score (-2 to +2) = 1; mean protection from cisplatin (shift in death) (%) = 9.8; Outcome = inactive
LOC401126 → two-siRNA summed score (-2 to +2) = 0; mean protection from cisplatin (shift in death) (%) = -1; Outcome = inactive
HSPB7 → two-siRNA summed score (-2 to +2) = 0; mean protection from cisplatin (shift in death) (%) = -5.5; Outcome = inactive
SHF → two-siRNA summed score (-2 to +2) = 0; mean protection from cisplatin (shift in death) (%) = 2; Outcome = inactive
XPOT → two-siRNA summed score (-2 to +2) = 0; mean protection from cisplatin (shift in death) (%) = 13.4; Outcome = inactive
DNAI1 → two-siRNA summed score (-2 to +2) = 0; mean protection from cisplatin (shift in death) (%) = 2.2; Outcome = inactive
MARCHF9 → two-siRNA summed score (-2 to +2) = 0; mean protection from cisplatin (shift in death) (%) = 1.8; Outcome = inactive
